The assay has as its target Human PPARγ-LBD (isoform 1; amino acids 203–477) (human) (UniProt P37231). Nature of the assay: FRET or BRET; same cell-free TR-FRET coactivator recruitment; with 14 long-chain fatty acids (C12:0–C22:6) or 15d-PGJ2 (in ethanol), concentration series; response as percent of the maximal response with 1 µM GW full agonist; both purified.

The chains behind the UniProt entries cited, without tags or fusion partners. Residues count along the entry.
UniProt P37231, residues 231-505: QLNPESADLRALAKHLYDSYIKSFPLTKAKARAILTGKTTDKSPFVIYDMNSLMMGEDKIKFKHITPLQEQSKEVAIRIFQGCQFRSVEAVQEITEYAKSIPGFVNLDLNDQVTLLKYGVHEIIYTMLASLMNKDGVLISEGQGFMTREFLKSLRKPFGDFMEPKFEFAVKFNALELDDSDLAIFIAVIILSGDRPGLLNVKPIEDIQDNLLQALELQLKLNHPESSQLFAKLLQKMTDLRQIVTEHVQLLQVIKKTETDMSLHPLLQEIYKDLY

The text below walks through data of paper PMC12732646, “Peroxisome Proliferator-Activated Receptor α/δ/γ Activation Profile by Endogenous Long-Chain Fatty Acids” (International Journal of Molecular Sciences, 2025).

These are yes or no findings as the source states them, for the method shown. Some entries that bind do so weakly or less than the wild type.

B1: TRAP220 coactivator peptide, AAs 631–655 (peptide)
peptide: PVSSMAGNTKNHPMLMNLLKDNPAQ
modifications: biotin-labeled (position not given)
Turning to B1, the binding entry is “binds weakly”.

B2: CBP coactivator peptide, AAs 56–80 (peptide)
peptide: SGNLVPDAASKHKQLSELLRGGSGS
modifications: biotin-labeled (position not given)
On to B2, for which the binding entry is reported as “binds weakly”.
